PubChem BioAssay AID1259276, Sanger Institute – 2017

- Purpose: 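Kinase knock-downs that reduce colorectal cancer cell viability alone or with anchor drugs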 (primary screen)
- Cells: human C2BBe1 colorectal cancer cells
- Reagent: siRNA pool against human genes
- Treatment: DMSO vehicle, or one anchor drug: BYL719 at 1 µM, cetuximab at 5 µg/ml, or trametinib at 10 nM; exposure length not stated
- Measurement: 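Viability after knock-down relative to non-targeting siRNA controls, averaged across replicates, given as ratio and control-derived robust z-score, with per-drug synergy scores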
- Direction: viability robust z-score, siRNA alone and viability vs control, siRNA alone: higher = more viable cells after knock-down
- Call rule: 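Called essential when knock-down alone gives a viability robust z-score below -3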
- Calls: active = essential (siRNA alone); inactive = no change (siRNA alone)
The deposit covers 794 reagents; shown is a random part of them. 24 of them (3%) count as active. 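Calls come only from the siRNA-alone arm; drug synergy scores do not affect them.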 No viability above 1 is reported: the scale is capped. Further read-outs or replicates are left out here. Not stated in the record: the amount of reagent, the time to read-out.

Depletion of BUB1B resulted in: viability robust z-score, siRNA alone -0.522; viability vs control, siRNA alone 0.937; inactive.
PANK1 scored viability robust z-score, siRNA alone 0.472; viability vs control, siRNA alone 1; inactive.
With knock-down of TTBK2 the results were viability robust z-score, siRNA alone 0.472; viability vs control, siRNA alone 1; inactive.
For PIK3R2, the values are viability robust z-score, siRNA alone 0.472; viability vs control, siRNA alone 1; inactive.
For MKNK1 the deposit lists viability robust z-score, siRNA alone 0.472; viability vs control, siRNA alone 1; inactive.
After knock-down of BMPR1B, the record shows viability robust z-score, siRNA alone -0.72; viability vs control, siRNA alone 0.925; inactive.
Silencing of PSKH2 came out at: viability robust z-score, siRNA alone -0.648; viability vs control, siRNA alone 0.929; inactive.
Depletion of CDC73 came out at: viability robust z-score, siRNA alone 0.472; viability vs control, siRNA alone 1; inactive.
DIS3 scored viability robust z-score, siRNA alone 0.191; viability vs control, siRNA alone 0.982; inactive.
After knock-down of CDK5, the screen gave viability robust z-score, siRNA alone 0.472; viability vs control, siRNA alone 1; inactive.
Depletion of FER gave: viability robust z-score, siRNA alone 0.472; viability vs control, siRNA alone 1; inactive.
For HASPIN, the entry reads viability robust z-score, siRNA alone 0.472; viability vs control, siRNA alone 1; inactive.
For INSR, the entry reads viability robust z-score, siRNA alone 0.472; viability vs control, siRNA alone 1; inactive.
CRIM1 gave viability robust z-score, siRNA alone -1.55; viability vs control, siRNA alone 0.873; inactive.
For MATK, the entry reads viability robust z-score, siRNA alone 0.472; viability vs control, siRNA alone 1; inactive.
For AURKA, the entry reads viability robust z-score, siRNA alone -2.18; viability vs control, siRNA alone 0.833; inactive.
For PIK3CB the deposit lists viability robust z-score, siRNA alone 0.472; viability vs control, siRNA alone 1; inactive.
For PRKG2, the entry reads viability robust z-score, siRNA alone 0.472; viability vs control, siRNA alone 1; inactive.
After knock-down of MAGI2 the results were viability robust z-score, siRNA alone -0.149; viability vs control, siRNA alone 0.961; inactive.
Against TESK2, the values are viability robust z-score, siRNA alone 0.472; viability vs control, siRNA alone 1; inactive.
CIB2 showed viability robust z-score, siRNA alone 0.472; viability vs control, siRNA alone 1; inactive.
MAPK10 showed viability robust z-score, siRNA alone 0.472; viability vs control, siRNA alone 1; inactive.
With knock-down of GRK2 the results were viability robust z-score, siRNA alone -0.0307; viability vs control, siRNA alone 0.968; inactive.
Depletion of STKLD1 came out at: viability robust z-score, siRNA alone 0.472; viability vs control, siRNA alone 1; inactive.
Depletion of TEX14 resulted in: viability robust z-score, siRNA alone -0.957; viability vs control, siRNA alone 0.91; inactive.
After knock-down of CALM3, the record shows viability robust z-score, siRNA alone 0.472; viability vs control, siRNA alone 1; inactive.
For PRKCG, the entry reads viability robust z-score, siRNA alone 0.472; viability vs control, siRNA alone 1; inactive.
CDKN1A scored viability robust z-score, siRNA alone 0.472; viability vs control, siRNA alone 1; inactive.

Reformatted: results already given
Target gene | viability robust z-score, siRNA alone | viability vs control, siRNA alone | activity call
TTBK2 | 0.472 | 1 | inactive
PIK3R2 | 0.472 | 1 | inactive
MKNK1 | 0.472 | 1 | inactive
